This is an account of results in patent US20240174637A1, “DEGRADERS OF GRK2 AND USES THEREOF” (Sonata Therapeutics, Inc., priority 2021, published 2024).

By UniProt entry, the sequences of proteins in these tests, tags left out.
UniProt P25098, whole entry: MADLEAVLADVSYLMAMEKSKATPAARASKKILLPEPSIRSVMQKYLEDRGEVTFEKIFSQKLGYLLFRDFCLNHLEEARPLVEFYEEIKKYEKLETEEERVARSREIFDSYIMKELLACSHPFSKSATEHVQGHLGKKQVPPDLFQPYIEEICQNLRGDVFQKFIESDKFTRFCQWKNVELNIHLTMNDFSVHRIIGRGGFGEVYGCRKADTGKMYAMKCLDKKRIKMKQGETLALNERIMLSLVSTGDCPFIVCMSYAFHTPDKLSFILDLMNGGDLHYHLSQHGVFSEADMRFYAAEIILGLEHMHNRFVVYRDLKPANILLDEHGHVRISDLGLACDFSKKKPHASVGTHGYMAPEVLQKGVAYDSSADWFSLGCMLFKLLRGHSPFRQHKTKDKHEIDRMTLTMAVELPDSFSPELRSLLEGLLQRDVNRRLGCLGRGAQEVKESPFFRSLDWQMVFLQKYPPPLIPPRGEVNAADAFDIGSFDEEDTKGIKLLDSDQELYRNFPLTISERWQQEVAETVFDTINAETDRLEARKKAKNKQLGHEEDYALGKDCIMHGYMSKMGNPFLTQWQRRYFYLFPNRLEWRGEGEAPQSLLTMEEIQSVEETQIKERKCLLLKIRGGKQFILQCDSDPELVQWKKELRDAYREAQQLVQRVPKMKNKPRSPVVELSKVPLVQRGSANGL

Experiment [1] addresses T1, GRK2 (Homo sapiens, UniProt P25098). The experiment is described as follows: GRK2 Inhibition Assay (TR-FRET, Example 1). The conditions noted are these: read-out: Enzymatic GRK2 Assay: IC50 (nM) (Example 1), 7 μM ATP. The protocol:
Assay: GRK2 enzyme (1 nM final concentration) was diluted in 25 mM HEPES, 10 mM MgCl2, 2 mM DTT, 0.01% Tween-20, and 1 mM EGTA. Then the GRK2 mixture was added into ProxiPlate-384 white plate and pre-incubated for 30 min with test compounds at room temperature. ATP (7 μM final concentration) and Ulight TopoIIα (50 nM final concentration) were added into the assay plate to initiate the reaction and the mixture was incubated at room temperature for 90 min. Then, Eu anti-TopoIIα (0.12 nM final concentration), BSA (0.01% final concentration), and EDTA (11 mM final concentration) in LANCE assay buffer were added into each well. After 60 min incubation time at room temperature, TR-FRET signal was measured by EnVision plate reader.

For experiment [2], the target named is T1, GRK2. Put plainly: GRK2 Degradation Assay and Western Blot in PAXF1657 cells. The protocol:
General Protocol: Degradation Assay and Western Blot. PAXF1657 cells were plated in 6-well, 24-well plates or 60 mm tissue culture treated dishes and incubated at 37° C. until 70% confluency. The media was aspirated, and the cells were treated with fresh media containing the compounds in the concentration range of 0 μM to 10 μM for a period of 6 to 24 hours. At the desired time points the cells were washed twice with cold PBS and lysed with lysis buffer (ice cold PBS+1% NP40 with 1/100 protease/phosphatase inhibitors) on ice for 8 mins followed by sonication at 70% intensity pulses for 10 seconds. The cells were centrifuged at 20000 g for 8 min at 4° C. The supernatants were collected and stored at −80° C.
Samples were mixed with NuPAGE LDS sample buffer and NuPAGE sample reducing buffer (3×), vortexed and heated at 95° C. for 10 min, and then analyzed by SDS-PAGE (NuPAGE 4-12%) followed by transfer to nitrocellulose membrane. […] The membranes were washed three times with TBST and incubated with GRK2 or R-actin antibodies in 5% milk in TBST at 4° C. overnight. The membranes were washed three times with TBST and incubated with anti-mouse IgG-HRP or anti-rabbit IgG-HRP at room temperature for 2 hours in 5% milk in TBST. The membranes were washed three times with TBST and developed with ECL Dura, ECL femto or ECL atto substrates.
(In general: In western blotting, separated proteins are transferred to a membrane and probed.)

The subject of the next experiment is PAXF1657 EV. Put plainly: 7-day cellular proliferation assay (CellTiter-Glo), PAXF1657 EV. The conditions noted are these: read-out: 7-day proliferation assay: IC50 GeoMean (uM) [Cell Line: PAXF1657 EV]. The protocol: (§1) In order to identify compounds specific for GRK2, we generated two isogenic cell line pairs of the pancreatic cancer cell line PAXF1657, a pair of cells stably overexpressing GRK2 cDNA or the control empty vector and a cell line pair of PAXF1657 GRK2 knockout clonal cells versus non-targeting control clonal cells.
(§2) Proliferation Assay: Cellular anti-proliferative activity of compounds was assessed by using the pancreatic cancer cell line, PAXF1657, stably overexpressing GRK2 cDNA or the control empty vector, as well as the parental urinary bladder cancer cell line, 5637. In addition, we also took advantage of GRK2 knockout cell lines that were generated via CRISPR. Cell lines were seeded into tissue culture treated, white-walled, 96-well plates at a density of 500 cells/well in RPMI1640 media supplemented with 10% H.I. FBS and penicillin/streptomycin. Plates were incubated overnight at 37° C., 5% CO2 to allow cells to adhere to the wells. […] At the time of compound addition, a set of plates, that were not treated with compounds, were collected and cell viability was measured using CellTiter-Glo (Promega). CellTiter-Glo reagent was added to the designed plates and luminescence was measuring using a Biotek Synergy plate reader. […] Cell viability was assessed and at end of the 7-day compound treatment by CellTiterGlo.

The subject of another experiment is PAXF1657 KO Clone #4. The experiment is described as follows: 7-day cellular proliferation assay (CellTiter-Glo), PAXF1657 KO Clone #4. The conditions noted are these: read-out: 7-day proliferation assay: IC50 GeoMean (uM) [Cell Line: PAXF1657 KO Clone #4]. The protocol: as §1, §2
A general note: Cellular ATP, detected with luciferase, serves as a proxy for viable cell number.

The structures appear in SMILES notation. The match of structure and compound is tentative. Some results are limits rather than exact numbers.

Regarding `CN[C@@H](C)C(=O)N[C@H](C(=O)N1CCC[C@H]1c1nc(C(=O)c2cccc(OCc3cn(CCCCCOc4cccc(CNC(=O)c5cccc(NCc6nnc(-c7ccncn7)n6C)c5)c4)nn3)c2)cs1)C1CCCCC1`, the results for the IC50 on GRK2 [1], in the experiment with PAXF1657 EV and in the experiment with PAXF1657 KO Clone #4 were less than 100 nM, 1 to 10 µM and 1 to 10 µM, respectively. Besides, the “% GRK2 degradation at 1 uM in PAXF1657 EV (24 hrs)” value at GRK2 [2] (1 uM) is recorded as 66%. Besides, on GRK2 [2] (3 uM), the “% GRK2 degradation at 3 uM in PAXF1657 EV (24 hrs)” value is 70%.
